# In PubChem BioAssay AID504467 (National Center for Advancing Translational Sciences (NCATS), 2011):
# Out of some 330,000 compounds screened, about 7,700 (2.3%) were called active. Inconclusive means that the source gave no clear call. Such entries were picked first, then a sample of the others. Calls follow the shape of the dose curve; as a rule, active = well fitted inhibition curve with a large enough effect; inconclusive = small, poorly fitted or top-dose-only effect, or effect the other way; inactive = flat fitted curve, though single readings scatter. Potencies of inconclusive entries are doubtful fits and often do not repeat.
# Test: qHTS screen for small molecules that inhibit ELG1-dependent DNA repair in human embryonic kidney (HEK293T) cells expressing luciferase-tagged ELG1; also: nearly all actives have a fitted effect of over 55% in size
# Details: HEK293T ELG1-luciferase reporter, luminescence, 16 h, DNA damage induced by 5-fluorouridine; activity change, negative = inhibition: at 46.1 µM (top of the series)
# Outline: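 DMSO vehicle served as the neutral condition. Each well held 2,000 cells given 5-fluorouridine plus compound; after 16 hr at 37 °C/5% CO2, ONE-Glo was added and luciferase measured 30 min later.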
# % is scaled to controls: 0 for no effect and ±100 for the full control effect; potency is read from the fitted curve at half-maximal effect.
SMILES,Potency,"activity change, negative = inhibition"
COc1c(Cl)cc(Cl)cc1C(=O)Nc1ccc(NC(C)=O)cc1,"inconclusive: 32.6 µM [inhibitor, partial curve, poor fit]",
O=C(/C=C/c1cccc(Cl)c1)Nn1c(-c2cccs2)nc2ccccc2c1=O,inactive,
CCCN(/C=N/c1sc2c(c1C#N)CCCCC2)CCC,"inconclusive: 22.4 µM [activator, single point]",
Cn1c(=O)c2c(ncn2CC(=O)N2CCN(c3ccccc3F)CC2)n(C)c1=O,,inconclusive: 85.3% [activator]
CCC(=O)Nc1ccc2oc(-c3ccccc3Br)nc2c1,"inconclusive: 2.31 µM [activator, full curve]",
CC(=O)c1c(C)[nH]c(C(=O)N2CCc3ccccc3C2)c1C,"inconclusive: 29.1 µM [activator, single point]",
CC(C)CN(C(=O)COC(=O)C1CC1)c1c(N)n(Cc2ccccc2)c(=O)[nH]c1=O,inactive,
Clc1ccc(N2CCN(/N=C/c3ccncc3)CC2)cc1,active: 20.6 µM,
Cc1cc2cc(CNC(=O)NC3CCCCC3)ccc2[nH]1,"inconclusive: 16.4 µM [activator, partial curve]",
Cn1c(CSCc2ccc(Cl)c(Cl)c2)n[nH]c1=S,inactive,
OC[C@@H]1CC[C@@H](Cc2ccc(-c3ccccc3)cc2)O1,"inconclusive: 2.59 µM [activator, full curve]",
CN(Cc1ccccc1)C(=O)COc1ccc(N(C)S(=O)(=O)c2ccc(F)cc2)cc1,"inconclusive: 18.3 µM [inhibitor, partial curve]",
COC(=O)CCCN1C(=O)NC(c2ccc(-c3ccccc3)cc2)C(C(=O)OCc2ccccc2)=C1C (centres undefined),"inconclusive: 3.66 µM [inhibitor, partial curve]",
Cn1c(N2CCCC2)nc2c1c(=O)n(Cc1ccc(F)cc1)c(=O)n2C,"inconclusive: 12.6 µM [inhibitor, partial curve, poor fit]",
Cc1ccccc1C(=O)Nc1cccc(C(=O)N/N=C/c2cc(Cl)cc([N+](=O)[O-])c2O)c1,"inconclusive: 18.3 µM [inhibitor, single point]",
COC(=O)c1cc(-c2ccc(Br)cc2)c2c(=O)[nH]c(=O)n(C)c2n1,inactive,
COc1cc(C(=O)Nc2ccc(NC(=O)C3CCCCC3)nc2)cc(OC)c1OC,inactive,
Cc1cccc(NC(=O)CN(C2=NC3CS(=O)(=O)CC3S2)c2ccccc2F)c1 (centres undefined),inactive,
CC(C)(C)c1ccc(Cn2cnc(-c3ccc([N+](=O)[O-])cc3)c2)cc1,"inconclusive: 20.6 µM [activator, single point]",

# Laid out differently: entries from further up.
SMILES	Potency	activity change, negative = inhibition
CC(C)CN(C(=O)COC(=O)C1CC1)c1c(N)n(Cc2ccccc2)c(=O)[nH]c1=O	inactive	
Clc1ccc(N2CCN(/N=C/c3ccncc3)CC2)cc1	active: 20.6 µM	
